Experimental data taken from PMC8047169.
These are yes or no findings as the source states them, for the method shown. Where a sequence is shown, tags or fusion partners need not be part of it. Each block holds one binder with its values, some of them ahead of it.

Key:
[1] = target: T1, His-CowN (Gluconacetobacter diazotrophicus CowN, His-tagged, refolded, monomeric fraction) (Gluconacetobacter diazotrophicus) (UniProt A9H4F6); experiment: pull-down; His-CowN on Ni-NTA resin, 10 min incubation, three washes; 50 mM Tris pH 8, 60 mM NaCl, 1 mM DT; 2.5 μM MoFeP, 15 μM FeP, 15 μM CowN; nonturnover and turnover conditions with CO; SDS-PAGE; both purified
T1 sequence: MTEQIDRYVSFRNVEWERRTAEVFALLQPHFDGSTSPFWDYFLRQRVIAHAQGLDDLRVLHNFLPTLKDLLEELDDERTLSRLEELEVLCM

[2] = target: T1, His-CowN (Gluconacetobacter diazotrophicus CowN, His-tagged, refolded, monomeric fraction) (Gluconacetobacter diazotrophicus); experiment: SEC + other: dynamic light scattering; S75 gel filtration and DLS at room temperature, 25 mM HEPES pH 8, 25 mM NaCl; gel filtration size 19.4 kDa, DLS radius 1.96 ± 0.25 nm (15 to 18 kDa); both purified
[3] = target: T2, iron-protein (FeP) of Gluconacetobacter diazotrophicus Mo-nitrogenase (Gluconacetobacter diazotrophicus) (UniProt Q9ZIE4); experiment: cross-linking; EDC 12.5 mM, 30 min; 50 mM HEPES pH 8, 60 mM NaCl, 5 mM DT; 2.5 μM MoFeP, 15 μM FeP, 15 μM CowN; nonturnover and turnover (5 mM MgCl2, 5 mM ATP) conditions with 0.1 atm CO; SDS-PAGE; both purified
T2 sequence: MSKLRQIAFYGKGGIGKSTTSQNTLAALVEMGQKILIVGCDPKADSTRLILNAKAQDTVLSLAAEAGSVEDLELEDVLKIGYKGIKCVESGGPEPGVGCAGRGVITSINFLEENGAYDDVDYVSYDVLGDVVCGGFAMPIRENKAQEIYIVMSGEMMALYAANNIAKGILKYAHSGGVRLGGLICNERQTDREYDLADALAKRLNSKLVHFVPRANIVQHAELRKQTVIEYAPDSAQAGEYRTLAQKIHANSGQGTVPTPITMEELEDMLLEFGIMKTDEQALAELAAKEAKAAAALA

B1: iron-protein (FeP) of Gluconacetobacter diazotrophicus Mo-nitrogenase (protein, UniProt Q9ZIE4 1-298)
chain: T2 sequence
binding [1]: no binding (tested: 15 μM CowN, 15 μM FeP)

binding [2]: no binding
B2: His-CowN (Gluconacetobacter diazotrophicus CowN, His-tagged, refolded, monomeric fraction) (protein, UniProt A9H4F6 1-91)
chain: T1 sequence
binding [3]: no binding (tested: 15 μM CowN, 15 μM FeP)
